Source: patent US20100331384A1, “GUANIDINE BASED COMPOUNDS” (UNIVERSIDAD DEL PAIS VASCO/EUSKAL HERRIKO UNIBERTSITATEA, priority 2007, published 2010)

Chains of the proteins cited; added tags and fusions are not shown.
UniProt P08913, whole entry: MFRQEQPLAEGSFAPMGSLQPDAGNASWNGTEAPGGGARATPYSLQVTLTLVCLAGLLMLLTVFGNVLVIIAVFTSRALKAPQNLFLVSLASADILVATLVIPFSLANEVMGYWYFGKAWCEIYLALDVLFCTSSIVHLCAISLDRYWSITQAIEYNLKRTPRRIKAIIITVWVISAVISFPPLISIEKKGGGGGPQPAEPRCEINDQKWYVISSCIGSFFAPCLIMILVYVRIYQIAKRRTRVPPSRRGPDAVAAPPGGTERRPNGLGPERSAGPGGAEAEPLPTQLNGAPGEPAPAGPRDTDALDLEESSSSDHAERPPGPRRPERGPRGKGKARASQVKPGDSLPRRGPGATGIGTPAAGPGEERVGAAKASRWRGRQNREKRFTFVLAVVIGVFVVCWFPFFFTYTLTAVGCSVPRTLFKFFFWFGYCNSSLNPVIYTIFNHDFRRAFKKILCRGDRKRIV

Columns and labels:
α2-ARs [1] = target: T1, α2-ARs (Homo sapiens, UniProt P08913); assay: [35S]GTPγS binding functional assay, compounds alone; assay type: biochemical
T1 construct: other: human brain tissue in vitro; other: stimulation of [35S]GTPγS b
Procedure: The [^35S]GTPγs binding assay constitutes a functional measure of the interaction of the receptor and the G-protein and is a useful tool to distinguish between agonists (increasing the nucleotide binding), inverse agonists (decreasing the nucleotide binding), and neutral antagonists (not affecting the nucleotide binding) of GPCRs.^20 Experiments were performed in low-affinity receptor conditions for agonists (presence of guanine nucleotides and sodium in the medium), and therefore, typical potency values are two-three logarithmic units lower than affinity values obtained in radioligand receptor binding experiments.^20
Preparation of membranes. Neural membranes (P2 fractions) were prepared from the PFC of human brains obtained at autopsy in the Instituto Vasco de Medicina Legal, Bilbao, Spain. Postmortem human brain samples of each subject (˜1 g) were homogenized using a Teflon-glass grinder (10 up-and-down strokes at 1500 rpm) in 30 volumes of homogenization buffer (1 mM MgCl2, and 5 mM Tris-HCl, pH 7.4) supplemented with 0.25 M sucrose. […]
[^35S]GTPγs binding assays. […] The filters were rinsed twice with 3 mL of ice-cold re-suspension buffer, transferred to vials containing 5 mL of OptiPhase HiSafe II cocktail (Wallac, UK) and the radioactivity trapped was determined by liquid scintillation spectrometry (Packard 2200CA). […]

α2-ARs [2] = target: T1, α2-ARs; assay: [3H]RX821002 competition binding assay in human brain PFC membranes; settings: human brain tissue in vitro

agonistic or antagonistic properties in [35S]GTPγS experiments (α2-ARs [1]; human brain PFC): agonistic properties
stimulation of [35S]GTPγS binding by the compound on its own (α2-ARs [1]; human brain PFC membranes): stimulated binding
Structure (SMILES): Cc1ccc(NC(=N)N)cc1C [Compound 15b, 1-guanidino-3,4-dimethylbenzene]
affinity towards the α2-ARs compared with references (α2-ARs [2]): within the range of those of Idazoxan and/or Clonidine
